Results deposited as PubChem BioAssay AID504786 (Drosophila RNAi Screening Center, 2011)
In all, the deposit lists about 21,000 reagents; below is an unselected part of those that have a named target and a result. 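Primary screen; positive scores mean lost reporter signal, so the sign may be inverted from the usual convention.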 The numbers tell different reagents against one gene apart. Names joined by + are all predicted targets of the reagent.

Screen: 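Positive regulators of HIF-driven reporter output in Drosophila cells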 (primary screen)
System: Drosophila S2 cells with a stable HIF luciferase reporter
Knock-down reagent: long dsRNA against Drosophila genes, about 0.2 µg dsRNA per well of a 384-well plate
Time to read-out: three days of knock-down, then 20 h of DFO before reading
Treatment: desferrioxamine (DFO) at 100 µM, an iron chelator that mimics hypoxia, for 20 h
Measured: 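HIF reporter luminescence in cells given 100 µM DFO for 20 h, using the mouse ldh-a hypoxia-response element, scored as per-plate z-scores; higher means greater loss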
Scale: z-score: higher = stronger loss of HIF reporter signal

Pex14 (Peroxin 14)
- z-score, replicate 1: -0.3
- z-score, replicate 2: -0.4

CG13965
- z-score, replicate 1: -0.2
- z-score, replicate 2: -0.1

Oli (Olig family)
- z-score, replicate 1: -0.3
- z-score, replicate 2: 0

Ccp84Ab
- z-score, replicate 1: -0.5
- z-score, replicate 2: -1

HemK1 (HemK methyltransferase 1)
- z-score, replicate 1: -0.2
- z-score, replicate 2: 0.2

fuss (fussel)
- z-score, replicate 1: -0.4
- z-score, replicate 2: -0.6

CG15533
- z-score, replicate 1: -0.2
- z-score, replicate 2: 0.8

CG34196
- z-score, replicate 1: -0.6
- z-score, replicate 2: -0.2

CTCF
- z-score, replicate 1: -0.4
- z-score, replicate 2: -0.4

Smu1 (Smu1 spliceosomal factor)
- z-score, replicate 1: 0.3
- z-score, replicate 2: 0.9

plum
- z-score, replicate 1: -0.3
- z-score, replicate 2: -0.2

SIDL (Shal Interactor of Di-Leucine Motif)
- z-score, replicate 1: -0.4
- z-score, replicate 2: -0.7

Idgf3 (Imaginal disc growth factor 3)
- z-score, replicate 1: -0.3
- z-score, replicate 2: -0.5

BBS4 (Bardet-Biedl syndrome 4)
- z-score, replicate 1: 0
- z-score, replicate 2: -0.1

tinc (tincar) #1
- z-score, replicate 1: 0
- z-score, replicate 2: 0.2

tinc (tincar) #2
- z-score, replicate 1: 0.1
- z-score, replicate 2: 0

tinc (tincar) #3
- z-score, replicate 1: 0.8
- z-score, replicate 2: 0.4

tinc (tincar) #4
- z-score, replicate 1: -0.6
- z-score, replicate 2: -0.2

CRAT (Carnitine O-Acetyl-Transferase)
- z-score, replicate 1: -0.3
- z-score, replicate 2: -0.2

vkg (viking)
- z-score, replicate 1: -0.3
- z-score, replicate 2: -0.3

CG5664
- z-score, replicate 1: -0.7
- z-score, replicate 2: -0.3

CG13024
- z-score, replicate 1: -0.3
- z-score, replicate 2: -0.6

bic (bicaudal)
- z-score, replicate 1: 0.3
- z-score, replicate 2: 0.2

HINT1 (histidine triad nucleotide binding protein 1)
- z-score, replicate 1: -0.3
- z-score, replicate 2: -0.1

CG9760
- z-score, replicate 1: -0.2
- z-score, replicate 2: -0.5

CG5050
- z-score, replicate 1: -0.3
- z-score, replicate 2: -0.4

betaTub97EF (beta-Tubulin at 97EF) #1
- z-score, replicate 1: 1.6
- z-score, replicate 2: -0.6

betaTub97EF (beta-Tubulin at 97EF) #2
- z-score, replicate 1: -0.4
- z-score, replicate 2: -0.8

betaTub97EF (beta-Tubulin at 97EF) #3
- z-score, replicate 1: -0.3
- z-score, replicate 2: -0.4

Zip42C.1 (Zinc/iron regulated transporter-related protein 42C.1)
- z-score, replicate 1: -0.1
- z-score, replicate 2: -0.3

CG30379
- z-score, replicate 1: 0
- z-score, replicate 2: -0.1

ppk15 (pickpocket 15)
- z-score, replicate 1: -0.2
- z-score, replicate 2: 0

Pstk + CG14210 + Tim9b
- z-score, replicate 1: 3.1
- z-score, replicate 2: 2.4

pn (prune)
- z-score, replicate 1: -0.2
- z-score, replicate 2: -0.4

spn-A (spindle A)
- z-score, replicate 1: -0.2
- z-score, replicate 2: 1.8

Dpm1 (Dolichyl-phosphate mannosyltransferase subunit 1)
- z-score, replicate 1: -0.3
- z-score, replicate 2: -0.3

ssp6 (short spindle 6) #1
- z-score, replicate 1: -0.1
- z-score, replicate 2: -0.4

ssp6 (short spindle 6) #2
- z-score, replicate 1: 0.3
- z-score, replicate 2: 0

snu (snustorr)
- z-score, replicate 1: -0.3
- z-score, replicate 2: -0.3

Tg (Transglutaminase)
- z-score, replicate 1: -0.4
- z-score, replicate 2: -0.5

As entered above.
betaTub97EF (beta-Tubulin at 97EF) #3, z-score, replicate 2 → -0.4
tinc (tincar) #1, z-score, replicate 2 → 0.2
Result of CG34196 in “z-score, replicate 2”: -0.2
Value for tinc (tincar) #2 in “z-score, replicate 1”: 0.1
Value for SIDL (Shal Interactor of Di-Leucine Motif) in “z-score, replicate 2”: -0.7
Under “z-score, replicate 1”, betaTub97EF (beta-Tubulin at 97EF) #1 is entered as 1.6
